For the experiment, the target named is T1, FLAG-ULK1 (mouse) (UniProt O70405).
T1 sequence: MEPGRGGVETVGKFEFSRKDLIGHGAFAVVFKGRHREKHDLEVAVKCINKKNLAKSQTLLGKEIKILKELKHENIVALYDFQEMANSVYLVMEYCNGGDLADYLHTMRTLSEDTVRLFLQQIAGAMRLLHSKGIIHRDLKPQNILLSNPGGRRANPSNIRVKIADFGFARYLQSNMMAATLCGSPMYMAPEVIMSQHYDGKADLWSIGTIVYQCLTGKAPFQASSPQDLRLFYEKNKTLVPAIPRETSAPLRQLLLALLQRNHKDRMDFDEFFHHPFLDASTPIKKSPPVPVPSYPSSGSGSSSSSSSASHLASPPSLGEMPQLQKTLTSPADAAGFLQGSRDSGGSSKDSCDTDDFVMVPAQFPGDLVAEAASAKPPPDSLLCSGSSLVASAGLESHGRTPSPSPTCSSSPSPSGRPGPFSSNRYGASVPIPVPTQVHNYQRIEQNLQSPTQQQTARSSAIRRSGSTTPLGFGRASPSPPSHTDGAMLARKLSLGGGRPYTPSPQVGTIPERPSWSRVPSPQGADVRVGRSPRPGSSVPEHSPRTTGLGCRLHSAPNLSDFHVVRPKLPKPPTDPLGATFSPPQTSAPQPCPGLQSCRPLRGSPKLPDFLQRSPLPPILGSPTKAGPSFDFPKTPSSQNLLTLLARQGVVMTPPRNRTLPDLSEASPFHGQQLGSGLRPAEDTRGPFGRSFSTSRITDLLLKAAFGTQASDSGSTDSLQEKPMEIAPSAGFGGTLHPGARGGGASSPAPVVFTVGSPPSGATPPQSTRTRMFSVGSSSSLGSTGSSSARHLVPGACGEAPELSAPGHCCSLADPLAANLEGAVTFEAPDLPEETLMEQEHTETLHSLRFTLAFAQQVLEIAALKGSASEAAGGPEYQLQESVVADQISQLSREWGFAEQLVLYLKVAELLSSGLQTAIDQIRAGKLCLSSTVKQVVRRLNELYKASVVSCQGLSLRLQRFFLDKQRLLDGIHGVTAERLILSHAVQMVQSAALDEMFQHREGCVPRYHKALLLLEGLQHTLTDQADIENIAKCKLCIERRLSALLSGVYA
The experiment in a line: co-IP; FLAG-ULK1 co-expressed with FIP200 and Atg13 in HEK293T; purified from clarified lysate on anti-FLAG M2 affinity gel, eluted with 1 mg/ml FLAG peptide.

The chains behind the UniProt entries cited, without tags or fusion partners.
UniProt Q8TDY2: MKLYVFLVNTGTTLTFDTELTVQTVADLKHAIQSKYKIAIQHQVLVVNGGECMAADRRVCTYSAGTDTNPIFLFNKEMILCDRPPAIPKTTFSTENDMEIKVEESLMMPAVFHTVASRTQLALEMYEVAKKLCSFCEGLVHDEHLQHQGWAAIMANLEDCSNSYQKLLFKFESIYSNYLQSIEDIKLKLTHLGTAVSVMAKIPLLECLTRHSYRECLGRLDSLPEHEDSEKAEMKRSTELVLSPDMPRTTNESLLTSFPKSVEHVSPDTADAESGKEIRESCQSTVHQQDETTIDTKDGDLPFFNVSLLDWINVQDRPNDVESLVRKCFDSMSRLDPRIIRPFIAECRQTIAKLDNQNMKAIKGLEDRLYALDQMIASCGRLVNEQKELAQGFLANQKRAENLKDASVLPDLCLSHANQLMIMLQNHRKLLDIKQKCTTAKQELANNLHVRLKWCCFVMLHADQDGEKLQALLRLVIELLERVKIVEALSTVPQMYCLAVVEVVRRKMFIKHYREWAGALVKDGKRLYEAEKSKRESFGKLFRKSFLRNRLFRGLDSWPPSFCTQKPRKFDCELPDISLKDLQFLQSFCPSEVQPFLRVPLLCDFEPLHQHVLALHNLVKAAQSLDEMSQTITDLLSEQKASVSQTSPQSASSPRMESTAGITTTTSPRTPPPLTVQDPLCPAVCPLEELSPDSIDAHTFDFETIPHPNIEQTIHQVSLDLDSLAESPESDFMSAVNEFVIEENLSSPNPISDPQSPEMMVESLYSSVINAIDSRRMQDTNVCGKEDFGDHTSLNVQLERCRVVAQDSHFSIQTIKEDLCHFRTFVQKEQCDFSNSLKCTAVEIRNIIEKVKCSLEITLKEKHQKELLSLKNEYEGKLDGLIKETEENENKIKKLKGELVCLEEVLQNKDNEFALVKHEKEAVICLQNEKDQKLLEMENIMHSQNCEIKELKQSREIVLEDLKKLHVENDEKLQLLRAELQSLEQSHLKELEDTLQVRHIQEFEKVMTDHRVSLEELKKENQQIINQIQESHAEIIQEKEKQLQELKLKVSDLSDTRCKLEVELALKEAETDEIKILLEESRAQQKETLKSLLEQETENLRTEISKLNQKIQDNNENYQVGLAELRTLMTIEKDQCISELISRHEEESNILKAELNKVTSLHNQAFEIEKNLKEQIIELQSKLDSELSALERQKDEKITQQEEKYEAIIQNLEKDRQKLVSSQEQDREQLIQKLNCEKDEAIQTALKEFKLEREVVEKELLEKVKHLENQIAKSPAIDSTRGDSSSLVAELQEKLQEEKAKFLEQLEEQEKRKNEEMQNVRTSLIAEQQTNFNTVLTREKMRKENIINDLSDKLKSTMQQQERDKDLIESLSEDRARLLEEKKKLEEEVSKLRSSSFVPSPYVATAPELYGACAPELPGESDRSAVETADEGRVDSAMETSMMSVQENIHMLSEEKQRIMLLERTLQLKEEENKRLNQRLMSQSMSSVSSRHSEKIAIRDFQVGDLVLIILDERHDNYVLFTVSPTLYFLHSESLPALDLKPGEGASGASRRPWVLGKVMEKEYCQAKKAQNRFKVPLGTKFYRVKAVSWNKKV

No constants are given. Whether binding was seen depends on the method and setting. Binding seen in cells or lysates may run through a third protein. Some entries that bind do so weakly or less than the wild type. Where a sequence is shown, tags or fusion partners need not be part of it.

On to FIP200 (from UniProt Q8TDY2 1-1594), for which the binding result is “binds”.

Source of the values: paper PMC5603566.
